The results in this text go back to PubChem BioAssay AID2685 (National Center for Advancing Translational Sciences (NCATS), 2010).

The assay can be described thus: qHTS Assay for Lipid Storage Modulators in Drosophila S3 Cells.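 On cell number change: cells counted by Cell Tracker Red CMTPX staining in the red channel.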 As to conditions: BODIPY lipid droplet fluorescence, 18-24 h; for cell number change: measured here: cell count max response, cells fed with added oleic acid. The gist of the method: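 Drosophila S3 cells got compounds at several concentrations plus oleic acid (400 uM solution). Laser-scanning cytometry with 488 nm excitation read lipid droplets at 500-530 nm and cells at 575-640 nm. Percent activity was relative to 20 uM Triacsin C.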

[1] abbreviates: measured here: cell number channel AC50, cells fed with added oleic acid.
Where [2] appears, read: measured here: lipid fluorescence (Fed channel) AC50, cells fed with added oleic acid.

This is one part of the list. The main result of the screen is listed elsewhere. These columns were measured beside it and carry no call. The list favours compounds with an active or inconclusive main result. The note in brackets gives the kind of curve behind each potency; many fits are weak.

Regarding `C=CCn1c(SCC(=O)NC2(C#N)CCCCC2)nnc1-c1ccncc1`, the cell number change was 25%. Also, under setting [1], the AC50 is 1.3 µM [rising, full curve, poor fit].

With `Cc1cc(C)n(-c2nc(NCC(C)O)c3c4c(sc3n2)COC(C)(C)C4)n1` (configuration not stated), the cell number change is -40.9%. For the same molecule, the AC50 under setting [1] is 11.6 µM [falling, single point].

For the molecule `CN(Cc1ccccc1)C(=O)CN1C(=O)NC2(CCCC2)C1=O`, the cell number change stood at 7.38%.

As to `CCn1ncc(N2CCOCC2)c(Cl)c1=O`, the cell number change stood at 22.5%.

`O=C(NC1CC2CCC(C1)N2C(=O)NCc1ccccc1)C1CC1` (configuration not stated): the cell number change is -32%. The AC50 under setting [1] was 16.4 µM [falling, single point].

On to `O=C1NNC(c2ccccc2)=N/C1=C\c1ccco1`, for which the cell number change came to 12%.

With `Cc1cc(OCC(=O)OCC(=O)NC2CCCCC2C)ccc1Cl` (configuration not stated), the cell number change was -4.23%. The AC50 under setting [1] is 6.51 µM [falling, single point]. Further, the AC50 under setting [2] is 6.51 µM [falling, single point].

On to `O=C(CSc1ncnc2c1nnn2Cc1ccc(F)cc1)NC1CCCC1`, for which the cell number change was -26.3%. Further, under setting [2], the AC50 was 0.82 µM [falling, partial curve, poor fit].

For the molecule `Nc1nc(COC(=O)C2CC(=O)N(CCc3ccccc3)C2)nc(Nc2ccccc2)n1` (configuration not stated), the cell number change is -2.76%. For the same molecule, the AC50 under setting [2] is 29.1 µM [rising, single point].

On to `COC(=O)[C@H](C)NC(=O)NCc1ccccc1F`, for which the cell number change was -29.1%. Also, the AC50 under setting [1] is 0.092 µM [falling, full curve, poor fit]. In addition, the AC50 under setting [2] was 0.461 µM [falling, full curve, poor fit].

`CC1Cc2ccccc2N1C(=O)COC(=O)c1n[nH]c(=O)c2ccccc12` (configuration not stated): the cell number change stood at 5.96%. Also, the AC50 under setting [2] was 23.1 µM [rising, single point].

For the molecule `COc1cc(NC(=O)c2cncc(-c3ccc(C#N)cc3)c2)cc(C(=O)Nc2cccc(C(F)(F)F)c2)c1`, the cell number change is -20.5%.

In the case of `COc1ccc([N+](=O)[O-])c(S(=O)(=O)c2ccc(Cl)cc2)n1`, the cell number change was -61.7%. Further, the AC50 under setting [1] is 11.6 µM [falling, partial curve].

In the case of `CCOC(=O)c1c(CC(C)C)csc1NC(=O)C(C)C`, the cell number change is -22.6%.

As to `NCC(=O)N1CCC(C(=O)N[C@@H](Cc2c[nH]c3ccccc23)C(=O)O)CC1`, the AC50 under setting [2] was 6.51 µM [falling, single point].

Consider `CC1(C(=O)O)CCC(C(=O)Nc2ccccc2O)C1(C)C` (configuration not stated), for which the cell number change is 25.3%. Also, the AC50 under setting [2] was 0.116 µM [falling, full curve].

In the case of `COCCNC(=O)CCCC(=O)NCCOC`, the cell number change is -61.8%. Besides, the AC50 under setting [1] is 29.1 µM [falling, partial curve, poor fit].

For the molecule `Cc1cc(C)c2c(C)c(C(=O)NCc3ccc(S(N)(=O)=O)cc3)oc2c1`, the cell number change was -25%. Further, under setting [2], the AC50 was 23.1 µM [falling, single point].

For `NS(=O)(=O)c1ccc(NC(=O)CSc2ccccn2)cc1`, the cell number change turned out to be 18.2%. In addition, the AC50 under setting [1] is 0.082 µM [rising, full curve, poor fit]. In addition, the AC50 under setting [2] is 18.4 µM [rising, single point].

In the case of `CCCn1c(N)c(C(=O)CN(C)CC(=O)Nc2c(C)cc(C)cc2C)c(=O)[nH]c1=O`, the AC50 under setting [2] is 6.51 µM [rising, partial curve].

As to `O=C(NC1CCCCCC1)C(=S)N1CCOCC1`, the cell number change was -8.31%. Moreover, the AC50 under setting [2] was 29.1 µM [falling, single point].

Turning to `Cc1ccc(C)c(S(=O)(=O)N/N=C/c2cccnc2)c1`, the cell number change was found to be 66.5%. The AC50 under setting [1] was 18.4 µM [rising, partial curve, poor fit]. The AC50 under setting [2] was 0.651 µM [rising, partial curve, poor fit].

Turning to `Cc1ccc(NS(=O)(=O)c2ccc3c(c2)NC(=O)CO3)cc1Cl`, the cell number change was determined as 8.26%.

For `COc1ccc(NC(=O)COc2ccccc2Cc2ccccc2)cc1S(=O)(=O)N1CCOCC1`, the cell number change was -50%. Also, under setting [1], the AC50 was 29.1 µM [falling, single point].

For `CCCOc1ccc(-c2nc(N3CCN(C)CC3)c3ccccc3n2)cc1`, the cell number change was -26.9%. For the same molecule, the AC50 under setting [2] is 29.1 µM [falling, single point].

As to `O=C(CN1CCN(CCN2C(=O)c3cccc4cccc(c34)C2=O)CC1)c1ccc(F)cc1`, the cell number change was -30.6%. In addition, under setting [1], the AC50 is 11.6 µM [falling, single point].

For `CN1CC[C@]2(CCN3CCc4c(oc5ccccc45)[C@@H]3C2)N(C)C1=O`, the cell number change is 33.8%. For the same molecule, under setting [1], the AC50 was 13 µM [rising, single point]. In addition, the AC50 under setting [2] is 13 µM [rising, single point].

As for `O=C(CCCCCn1c(=O)[nH]c2ccccc2c1=O)NCCCN1CCN(c2ccccc2F)CC1`, the AC50 under setting [1] was 6.51 µM [rising, single point] and the AC50 under setting [2] was 6.51 µM [rising, partial curve, poor fit].

With `C/C(=N/NC(=O)c1ccncc1)C1=C(O)CC(C)(C)CC1=O`, the cell number change was -25.9%. Also, the AC50 under setting [1] was 0.82 µM [falling, full curve, poor fit]. Also, the AC50 under setting [2] was 5.8 µM [rising, single point].

On to `CCn1cc(C(=O)NCC(OC)OC)c(=O)c2cc(S(=O)(=O)N3CCC(C)CC3)ccc21`, for which the cell number change worked out at 0.763%.

With `Cc1ccc(S(=O)(=O)N(CC(=O)N2CCCCCC2)c2ccccc2F)cc1`, the cell number change was -6.41%.

For `COc1ccc(NS(=O)(=O)c2ccc(N3CCCC3)c(N)c2)cc1`, the cell number change amounted to 6.58%.

In the case of `CCCN(CCC)C(=O)CC(c1ccccc1)c1cc(Br)ccc1O` (configuration not stated), the cell number change is -26.4%. Also, the AC50 under setting [2] was 2.31 µM [rising, partial curve, poor fit].

On to `COc1ccc(Cc2nnc(NC(=O)CSc3ccccc3)s2)cc1OC`, for which the AC50 under setting [1] is 0.92 µM [rising, full curve, poor fit].

In the case of `Cc1ccc(NC(=O)Cc2c(Cl)cccc2Cl)cc1S(=O)(=O)N(C)C`, the cell number change is -29%. Moreover, the AC50 under setting [1] is 0.651 µM [falling, full curve, poor fit]. Moreover, under setting [2], the AC50 is 18.4 µM [falling, single point].

With `COc1ccc(-c2cc(C(F)(F)F)n3ncc(C(=O)N4CCCCC4c4cccnc4)c3n2)cc1` (configuration not stated), the cell number change was 31.8%. Also, under setting [1], the AC50 was 1.64 µM [rising, partial curve]. Moreover, the AC50 under setting [2] was 13 µM [rising, partial curve].

For `Cc1cc(OCC(=O)Nc2ccc(CN3CCOCC3)cc2)c2c(C)c(C)c(=O)oc2c1`, the cell number change was 11.6%.

In the case of `COc1ccc(C/C(C)=N/NC(=S)Nc2ccccc2)cc1`, the cell number change is -15.6%. The AC50 under setting [1] is 0.00461 µM [rising, full curve, poor fit]. The AC50 under setting [2] is 0.13 µM [rising, full curve, poor fit].
